Results on two molecules are retold here after US20260071182A1 (GAIA BIOMEDICINE, published 2026).

By UniProt entry, the sequences of proteins in these tests, tags left out. Residues count along the entry.
UniProt O76036, 22-255: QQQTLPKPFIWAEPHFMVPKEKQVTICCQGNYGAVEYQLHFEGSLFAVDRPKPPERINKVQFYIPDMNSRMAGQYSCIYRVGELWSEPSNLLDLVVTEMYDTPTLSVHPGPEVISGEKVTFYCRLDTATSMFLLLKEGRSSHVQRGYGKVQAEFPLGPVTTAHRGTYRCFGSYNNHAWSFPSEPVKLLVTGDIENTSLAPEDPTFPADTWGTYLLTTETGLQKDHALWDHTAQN

Test [1] addresses T1, Biotinylated Human 2B4/CD244/SLAMF4 Protein, Fc, Avitag (2B4-H82F0) (human, UniProt Q9BZW8-2 22-221, biotinylated (Avitag)).
T1 construct: Bought from ACROBiosystems, catalog 2B4-H82F0; not shown: Fc and Avitag of the purchased protein
T1 sequence (looked up): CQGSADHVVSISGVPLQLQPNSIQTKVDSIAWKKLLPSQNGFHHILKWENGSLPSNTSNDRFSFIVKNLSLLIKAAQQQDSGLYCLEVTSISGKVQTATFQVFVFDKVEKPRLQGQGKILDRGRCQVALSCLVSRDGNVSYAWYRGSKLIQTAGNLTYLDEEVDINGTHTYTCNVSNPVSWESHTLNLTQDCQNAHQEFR
Description: BLI (Octet RED96), target on sensor, monobody in five 2-fold dilutions. The procedure:
(§1) The binding abilities and specificities were examined by using an Octet® RED96 (ForteBio) with bio-layer interferometry. Measurement was performed with the following program: Dip for 50 seconds, Load for x seconds (until a signal of 1.0 nm (NKp46, 2B4) or 0.8 nm (Nkp30) was reached), Baseline for 60 seconds, Association for 600 seconds, and Dissociation for 600 seconds. At that time, the monobody concentrations were equally set to 40 nM. The acquired data were analyzed with ForteBio Data Analysis 10.0. Only samples for which binding ability and specificity were found were subjected to measurement of dissociation constants under different conditions. The measurement conditions are shown in a table given below. Dip, Baseline, Association, and Dissociation were performed for the same times as in examining binding ability and specificity. The monobodies were serially diluted from the highest concentration by a factor of 2 to prepare five concentrations for use in measurement.
(§2) The binding abilities and specificities of all the clones expressed and purified in Example 3 were examined, and the values of dissociation constants were measured. FIGS. 5 to 7 show the measurement results. In the top graphs in each of FIGS. 5 to 7, upper lines show results of measurement of the binding abilities of the monobodies with binding of a target to the tip of the sensor, and lower lines show results of examination on whether a monobody was bound only to the sensor without binding of a target to the sensor. Mb in the graphs is an abbreviation for monobody concentration. For any of the clones, the monobody was bound to the sensor when a target was fixed on the sensor, and no binding was found when a target was not fixed on the sensor. The bottom graphs in each of FIGS. 5 to 7 show results of measurement of dissociation constants for five concentrations.

For test [2], the target named is T2, Biotinylated Human NKp46/NCR/CD335 Protein, Fc, Avitag (NC1-H82F9) (human, UniProt O76036 22-255, biotinylated (Avitag)).
T2 construct: Bought from ACROBiosystems, catalog NC1-H82F9; not shown: Fc and Avitag of the purchased protein
The test is described as above. The procedure: as §1, §2

B1: Mb-2B4-BC-1 (designed binder)
chain: LEVVEASPTSIQISWDAGPIVSYSWWYHWVRYYRITYGETGGNSPVQEFTVPGSKSTATISGLKPGVDYTITVYAVTVGYVNEKYDAWQSYVQPISINYRTEIDKPSQ
notes: Monobody on human fibronectin type III domain scaffold, BC-FG library; also called 2B4 BC-FG No. 1; not shown: Sortase A recognition site, His tag and any linker (X8n8) at the C terminus; MPNR in the library
As to B1, in test [1], the Kd (commonly the constant that tells how readily two partners part at equilibrium) amounted to 2 nM, the koff (usually the rate constant with which the complex falls apart) worked out at 0.00025 s⁻¹ and the kon (commonly the rate constant with which the complex forms) was determined as 120000 M⁻¹ s⁻¹.

B2: Mb-NKp46-BC-1 (designed binder)
chain: LEVVEASPTSIQISWDAPIWGRYGTVRYYRITYGETGGNSPVQEFTVPGSKSTATISGLKPGVDYTITVYAVTTVRGQTYYWWMLPISINYRTEIDKPSQ
notes: Monobody on human fibronectin type III domain scaffold, BC-FG library; also called NKp46 BC-FG No. 1; not shown: N-terminal residues of the expression construct (X7n7; the library has MPNR), linker, Sortase A recognition site and His tag
Consider B2, for which, in test [2], the Kd stood at 1.4 nM, the koff is 0.0005 s⁻¹ and the kon came out at 350000 M⁻¹ s⁻¹.
